Here are results for one compound from ChEMBL document CHEMBL3098017, “Discovery and in Vivo Evaluation of Potent Dual CYP11B2 (Aldosterone Synthase) and CYP11B1 Inhibitors” (ACS Med Chem Lett, 2013).

In experiment [1] the target is T1, Cytochrome P450 11B1, mitochondrial (Rattus norvegicus, UniProt P15393).
T1 sequence (P15393 whole entry): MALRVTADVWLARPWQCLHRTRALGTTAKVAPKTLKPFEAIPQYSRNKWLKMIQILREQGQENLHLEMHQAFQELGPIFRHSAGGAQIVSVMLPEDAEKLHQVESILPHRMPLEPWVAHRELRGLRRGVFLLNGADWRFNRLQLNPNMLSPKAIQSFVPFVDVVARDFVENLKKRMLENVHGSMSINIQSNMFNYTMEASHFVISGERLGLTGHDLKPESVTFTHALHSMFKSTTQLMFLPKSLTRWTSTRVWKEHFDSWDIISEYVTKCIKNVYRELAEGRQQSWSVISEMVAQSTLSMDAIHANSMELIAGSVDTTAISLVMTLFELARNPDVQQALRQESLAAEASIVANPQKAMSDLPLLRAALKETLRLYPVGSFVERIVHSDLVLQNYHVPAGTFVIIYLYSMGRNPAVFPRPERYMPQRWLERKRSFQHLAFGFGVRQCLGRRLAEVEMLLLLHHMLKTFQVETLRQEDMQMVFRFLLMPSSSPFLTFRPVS
Nature of the experiment: Inhibition of rat recombinant CYP11B1 using 11-deoxycortisol as substrate by cell-based assay. Put shortly:
(§1)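 Recombinant rat CYP11b2 and CYP11b1 prepared in the same way as the human enzymes; enzymatic activity inhibition, IC50.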

For experiment [2], the target named is T2, Cytochrome P450 11B2, mitochondrial (Rattus norvegicus, UniProt P30099).
T2 sequence (P30099 whole entry): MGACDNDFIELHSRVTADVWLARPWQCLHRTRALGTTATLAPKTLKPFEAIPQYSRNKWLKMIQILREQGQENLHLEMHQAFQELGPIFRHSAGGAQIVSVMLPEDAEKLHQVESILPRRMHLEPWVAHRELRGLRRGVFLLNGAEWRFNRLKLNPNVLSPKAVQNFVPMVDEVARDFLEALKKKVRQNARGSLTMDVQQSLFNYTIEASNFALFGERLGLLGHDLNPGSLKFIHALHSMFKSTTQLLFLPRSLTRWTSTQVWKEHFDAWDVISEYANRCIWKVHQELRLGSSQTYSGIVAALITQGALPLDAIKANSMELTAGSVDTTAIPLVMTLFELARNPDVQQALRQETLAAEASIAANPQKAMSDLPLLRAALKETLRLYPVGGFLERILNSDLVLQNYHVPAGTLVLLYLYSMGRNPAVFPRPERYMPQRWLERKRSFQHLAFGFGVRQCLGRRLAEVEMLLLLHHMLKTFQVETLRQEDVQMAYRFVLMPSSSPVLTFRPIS
Nature of the experiment: Inhibition of rat recombinant CYP11B2 using 11-deoxycorticosterone as substrate by cell-based assay. Summed up:
as §1

pIC50: −log10 of the molar value.

Consider `N#Cc1ccc([C@H]2CCCc3cncn32)cc1` [DEXFADROSTAT], for which the pIC50 is 6.16 in experiment [1] and 6.93 in experiment [2].

What is called pIC50 is the IC50 on a negative log10 scale, so that one unit is a factor of ten.
